Assay results taken from ChEMBL document CHEMBL4316593 (Eur J Med Chem, 2019).
The source gives many values for each of these; only a part stands here.

Experiments:
Format in all cases: cell-based
Details in all cases: U-87MG ATCC
[1] = Inhibition of RTK/PI3K/AKT/mTOR signaling in human U87 cells assessed as down regulation of FIGNL1 gene expression at cytotoxic IC50 measured after 48 hrs relative to control
[2] = Inhibition of RTK/PI3K/AKT/mTOR signaling in human U87 cells assessed as down regulation of GINS2 gene expression at cytotoxic IC50 measured after 48 hrs relative to control
[3] = Inhibition of RTK/PI3K/AKT/mTOR signaling in human U87 cells assessed as down regulation of BBS4 gene expression at cytotoxic IC50 measured after 48 hrs relative to control
[4] = Inhibition of RTK/PI3K/AKT/mTOR signaling in human U87 cells assessed as down regulation of FAM177A1 gene expression at cytotoxic IC50 measured after 48 hrs relative to control
[5] = Inhibition of RTK/PI3K/AKT/mTOR signaling in human U87 cells assessed as down regulation of MAD2L1 gene expression at cytotoxic IC50 measured after 48 hrs relative to control
[6] = Inhibition of RTK/PI3K/AKT/mTOR signaling in human U87 cells assessed as down regulation of MRPL13 gene expression at cytotoxic IC50 measured after 48 hrs relative to control
[7] = Inhibition of RTK/PI3K/AKT/mTOR signaling in human U87 cells assessed as down regulation of DBR1 gene expression at cytotoxic IC50 measured after 48 hrs relative to control
[8] = Inhibition of RTK/PI3K/AKT/mTOR signaling in human U87 cells assessed as down regulation of SUPT4H1 gene expression at cytotoxic IC50 measured after 48 hrs relative to control
[9] = Inhibition of RTK/PI3K/AKT/mTOR signaling in human U87 cells assessed as down regulation of PPP2R1A gene expression at cytotoxic IC50 measured after 48 hrs relative to control
[10] = Inhibition of RTK/PI3K/AKT/mTOR signaling in human U87 cells assessed as down regulation of CHMP5 gene expression at cytotoxic IC50 measured after 48 hrs relative to control
[11] = Inhibition of RTK/PI3K/AKT/mTOR signaling in human U87 cells assessed as down regulation of SH3BP5L gene expression at cytotoxic IC50 measured after 48 hrs relative to control
[12] = Inhibition of RTK/PI3K/AKT/mTOR signaling in human U87 cells assessed as down regulation of NGDN gene expression at cytotoxic IC50 measured after 48 hrs relative to control
[13] = Inhibition of RTK/PI3K/AKT/mTOR signaling in human U87 cells assessed as down regulation of SLC9A3R1 gene expression at cytotoxic IC50 measured after 48 hrs relative to control
[14] = Inhibition of RTK/PI3K/AKT/mTOR signaling in human U87 cells assessed as down regulation of KDM5C gene expression at cytotoxic IC50 measured after 48 hrs relative to control
[15] = Inhibition of RTK/PI3K/AKT/mTOR signaling in human U87 cells assessed as up regulation of IZUMO4 gene expression at cytotoxic IC50 measured after 48 hrs relative to control
[16] = Inhibition of RTK/PI3K/AKT/mTOR signaling in human U87 cells assessed as up regulation of LDHA gene expression at cytotoxic IC50 measured after 48 hrs relative to control
[17] = Inhibition of RTK/PI3K/AKT/mTOR signaling in human U87 cells assessed as up regulation of ALDOC gene expression at cytotoxic IC50 measured after 48 hrs relative to control
[18] = Inhibition of RTK/PI3K/AKT/mTOR signaling in human U87 cells assessed as up regulation of HKDC1 gene expression at cytotoxic IC50 measured after 48 hrs relative to control
[19] = Inhibition of RTK/PI3K/AKT/mTOR signaling in human U87 cells assessed as up regulation of TGIF2 gene expression at cytotoxic IC50 measured after 48 hrs relative to control
[20] = Inhibition of RTK/PI3K/AKT/mTOR signaling in human U87 cells assessed as up regulation of MAP kinase interacting serine/threonine kinase 2 gene expression at cytotoxic IC50 measured after 48 hrs relative to control
[21] = Inhibition of RTK/PI3K/AKT/mTOR signaling in human U87 cells assessed as up regulation of nectin cell adhesion molecule 2 gene expression at cytotoxic IC50 measured after 48 hrs relative to control
[22] = Inhibition of RTK/PI3K/AKT/mTOR signaling in human U87 cells assessed as up regulation of mitochondrial ribosome recycling factor gene expression at cytotoxic IC50 measured after 48 hrs relative to control
[23] = Inhibition of RTK/PI3K/AKT/mTOR signaling in human U87 cells assessed as up regulation of cyclin G1 gene expression at cytotoxic IC50 measured after 48 hrs relative to control
[24] = Inhibition of RTK/PI3K/AKT/mTOR signaling in human U87 cells assessed as up regulation of SWI/SNF related, matrix associated, actin dependent regulator of chromatin, subfamily a, member 1 gene expression at cytotoxic IC50 measured after 48 hrs relative to control
[25] = Inhibition of RTK/PI3K/AKT/mTOR signaling in human U87 cells assessed as up regulation of F-box and leucine rich repeat protein 16 gene expression at cytotoxic IC50 measured after 48 hrs relative to control
[26] = Inhibition of RTK/PI3K/AKT/mTOR signaling in human U87 cells assessed as up regulation of transmembrane protein 39A gene expression at cytotoxic IC50 measured after 48 hrs relative to control
[27] = Inhibition of RTK/PI3K/AKT/mTOR signaling in human U87 cells assessed as up regulation of SH3 domain binding kinase 1 gene expression at cytotoxic IC50 measured after 48 hrs relative to control
[28] = Inhibition of RTK/PI3K/AKT/mTOR signaling in human U87 cells assessed as up regulation of SYT7 gene expression at cytotoxic IC50 measured after 48 hrs relative to control
[29] = Inhibition of RTK/PI3K/AKT/mTOR signaling in human U87 cells assessed as up regulation of NACC2 gene expression at cytotoxic IC50 measured after 48 hrs relative to control
[30] = Inhibition of RTK/PI3K/AKT/mTOR signaling in human U87 cells assessed as up regulation of GRAMD1A gene expression at cytotoxic IC50 measured after 48 hrs relative to control
[31] = Inhibition of RTK/PI3K/AKT/mTOR signaling in human U87 cells assessed as up regulation of SMAD2 gene expression at cytotoxic IC50 measured after 48 hrs relative to control
[32] = Inhibition of RTK/PI3K/AKT/mTOR signaling in human U87 cells assessed as up regulation of NME1 gene expression at cytotoxic IC50 measured after 48 hrs relative to control

In the case of `CC(=O)C(=NNc1ccccc1C#N)C(C)=O`, the log2FC [1] is reported as -1.75, the log2FC [2] is reported as -1.29 and the log2FC [3] is reported as -1.2. The log2FC [4] was -0.821, the log2FC [5] was -0.817 and the log2FC [6] was -0.803. It also gave a log2FC [7] of -0.761, a log2FC [8] of -0.744 and a log2FC [9] of -0.705. The log2FC [10] was -0.697, the log2FC [11] was -0.647 and the log2FC [12] was -0.616. It also gave a log2FC [13] of -0.608, a log2FC [14] of -0.584 and a log2FC [15] of 2.58. For the same compound, the log2FC [16] was 2.27, the log2FC [17] was 2.19 and the log2FC [18] was 2.15. The log2FC [19] was 1.77, the log2FC [20] was 1.09 and the log2FC [21] was 0.974. It also gave a log2FC [22] of 0.92, a log2FC [23] of 0.915 and a log2FC [24] of 0.779. For the same compound, the log2FC [25] was 0.765, the log2FC [26] was 0.739 and the log2FC [27] was 0.714. For the same compound, the log2FC [28] was 0.611, the log2FC [29] was 0.574 and the log2FC [30] was 0.561. It also gave a log2FC [31] of 0.475 and a log2FC [32] of 0.465.
